“And” between values parts separate entries of the source, which are not always exact repeats. Identical values can stand only once. This list was built around the results that the source calls inconclusive (neither active nor inactive); the mix of calls is not that of the screen. For some of these results: A potency beside an inconclusive call is a rough fit, not a confirmed value. The source made the active and inactive calls. The call rests on the fitted dose curve; in most records, active means well fitted curve in the direction sought with a large enough effect; inconclusive means small, poorly fitted or top-dose-only effect, or another doubt; inactive means no such curve, though single readings can be large; an effect the other way counts as inactive or inconclusive.
Experiments:
[1] = Cell Proliferation Assay against the TMD8 Cell Line (Caspase readout at 16 hrs) (AID 651712); conditions: TMD8 lymphoma cells, caspase activation luminescence; caspase activation: at 46.1 µM (top of the series); further: potency means the concentration at half of the fitted maximal effect
In short: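 Apoptotic response of TMD8 cells was judged from caspase 3/7 activation following a 16 hour compound incubation at 37 °C. Luminescent signal was converted to percent activity, with DMSO set as 0% and 9.2 uM final bortezomib as 100%.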

[2] = Identifying Small Molecule Inhibitors of Pancreatic Cancer Stem Cells (A2780, Spheroid) (AID 1259357); conditions: Potency: A2780 spheroid viability; series mostly up to 46.1 µM;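 further: spheroids pre-formed over 14 days in stem cell medium on hydrogel; potency means the concentration at half of the fitted maximal effect; compound exposure lasted 48 h before the ATP luminescence read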
In short: (§1)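 Pre-formed 14-day tumor spheroids or adherent cells dosed and incubated 48 h, 37C, 5% CO2. Viability assessed by CellTiter-Glo.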

[3] = Identifying Small Molecule Inhibitors of Pancreatic Cancer Stem Cells (Panc1, Spheroid) (AID 1259359); conditions: Panc1 spheroid cancer stem cell viability; viability, % of control: at 46.1 µM (top of the series) unless noted;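 further: potency means the concentration at half of the fitted maximal effect; compound exposure lasted 48 h before reading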
In short: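 Endpoint: ATP-based luminescence, 48 h drug exposure. Bortezomib at 9.2 uM final as full-kill control; DMSO vehicle as negative control; activity normalized between vehicle and cell-free wells.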

[4] = Identifying Small Molecule Inhibitors of Pancreatic Cancer Stem Cells (A278, Adherent) (AID 1259361);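 further: viability read after 48 h compound exposure; nearly all actives have a fitted effect of over 35% in size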
In short: as §1

[5] = P-glycoprotein substrates identified in KB-8-5-11 adenocarcinoma cell line, qHTS therapeutic library screen (AID 1346987); further: potency means the concentration at half of the fitted maximal effect; nearly all actives have a fitted effect of over 65% in size
In short: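 KB-8-5-11: colchicine-selected sub-line of KB-3-1 over-expressing P-gp; assay medium lacked colchicine. 72 h drug exposure at 37 degree C, CellTiter-Glo.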

[6] = qHTS of pediatric cancer cell lines to identify multiple opportunities for drug repurposing: Primary screen for Rh18 cells (AID 1347102); further: potency means the concentration at half of the fitted maximal effect; nearly all actives have a fitted effect of over 65% in size
In short: (§2)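 Cells (500-1,000/well) rested 5 h, then received compounds for 48 h; metabolically active cells were measured by CellTiter-Glo luminescence. Final concentrations spanned up to 46 µM (MIPE, 11-point) or 0.59 nM-46 µM (NPC, 8-point) in primary screens, 11-point in follow-ups.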

[7] = qHTS of pediatric cancer cell lines to identify multiple opportunities for drug repurposing: Primary screen for Rh30 cells (AID 1347107); further: potency means the concentration at half of the fitted maximal effect; nearly all actives have a fitted effect of over 75% in size
In short: as §2

[8] = qHTS of pediatric cancer cell lines to identify multiple opportunities for drug repurposing: Primary screen for Rh41 cells (AID 1347108); further: potency means the concentration at half of the fitted maximal effect; nearly all actives have a fitted effect of over 70% in size
In short: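 Following a 5-hour attachment period, cells at 500-1,000/well received compounds and were cultured for 48 hours. CellTiter-Glo was added and luminescence read to estimate viable, metabolically active cells.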

[9] = Quantitative High-Throughput drug screen in 47 multiple myeloma cell lines against the NCATS MIPE library collection: JIM1_ECACC cell viability assay (AID 1918964; further: potency means the concentration at half of the fitted maximal effect)
In short: (§3)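 We plated 500 myeloma cells per well, pinned in MIPE 4.0 compounds, and incubated for 48 hours at 37C. ATP was then quantified with CellTiter-Glo, with DMSO and media-only wells defining 100% and 0%.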

[10] = Quantitative High-Throughput drug screen in 47 multiple myeloma cell lines against the NCATS MIPE library collection: KMS21BM_JCRB cell viability assay (AID 1918974); conditions: ATP luminescence, 48 h; viability: at 45.8 µM (top of the series); further: potency means the concentration at half of the fitted maximal effect
In short: as §3

[11] = Quantitative High-Throughput drug screen in 47 multiple myeloma cell lines against the NCATS MIPE library collection: MOLP8_DSMZ cell viability assay (AID 1918977); conditions: MOLP8 myeloma viability, CellTiter-Glo ATP luminescence, 48 h; viability (% of control): at 45.8 µM (top of the series); further: potency means the concentration at half of the fitted maximal effect; nearly all actives have a fitted effect of over 45% in size
In short: (§4)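 Plated at 500 cells per well, myeloma lines received MIPE 4.0 compounds by pin tool. Following 48 h culture at 37 °C, CellTiter-Glo luminescence gave viability relative to DMSO and media-only controls.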

[12] = Quantitative High-Throughput drug screen in 47 multiple myeloma cell lines against the NCATS MIPE library collection: LP1_DSMZ cell viability assay (AID 1918982); further: potency means the concentration at half of the fitted maximal effect; nearly all actives have a fitted effect of over 35% in size
In short: as §4

[13] = Quantitative High-Throughput drug screen in 47 multiple myeloma cell lines against the NCATS MIPE library collection: L363_DSMZ cell viability assay (AID 1918984); conditions: L363 myeloma viability, CellTiter-Glo ATP luminescence, 48 h; viability (% of control): at 45.8 µM (top of the series); further: potency means the concentration at half of the fitted maximal effect; nearly all actives have a fitted effect of over 40% in size
In short: as §4

CRL-7250 = normal cell line; test: Cytotoxic Profiling of Annotated Libraries Using Quantitative High-Throughput Screening (AID 1296008); conditions: Five cell lines viability, CellTiter-Glo ATP luminescence, 48-72 h; max response: stronger effect = lower value; further: potency means the concentration at half of the fitted maximal effect; nearly all actives have a fitted effect of over 60% in size
In short: (§5)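 Cytotoxicity was measured as CellTiter-Glo ATP luminescence, read after 10 min at room temperature. Compound treatment of the cells lasted 48 or 72 hr at 37 degrees Celsius in a qHTS format.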

[14] = Identifying Small Molecule Inhibitors of Pancreatic Cancer Stem Cells (SN12C, Spheroid) (AID 1259360); conditions: Potency: SN12C spheroid viability; further: potency means the concentration at half of the fitted maximal effect
In short: as §1

[15] = Identifying Small Molecule Inhibitors of Pancreatic Cancer Stem Cells (Panc1, Adherent) (AID 1259362); conditions: Potency: viability unless noted; viability, % of control: at 46.1 µM (top of the series) unless noted; further: potency means the concentration at half of the fitted maximal effect
In short: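 Luminescent ATP readout (CellTiter-Glo) quantifies surviving cells after a 48 h drug incubation. Normalization uses DMSO wells as no inhibition and media-only wells as full inhibition; bortezomib served as positive control.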

[16] = Cell Proliferation Assay against the TMD8 Cell Line (Caspase readout at 8 hrs) (AID 651713); conditions: TMD8 lymphoma cells, caspase activation luminescence; caspase activation: at 46.1 µM (top of the series); further: potency means the concentration at half of the fitted maximal effect
In short: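 TMD8 cells (500/well) in phenol red-free RPMI with 5% FBS were treated with compounds for 8 h at 37C, 5% CO2. Caspase-Glo 3/7 luminescence was read after 15 min at room temperature and normalised to DMSO (0%) and 9.2 uM bortezomib (100%).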

[17] = Quantitative High-Throughput drug screen in 47 multiple myeloma cell lines against the NCATS MIPE library collection: KMS20_JCRB cell viability assay (AID 1918973); conditions: CellTiter-Glo ATP, 48 h; series mostly up to 45.8 µM; further: potency means the concentration at half of the fitted maximal effect; nearly all actives have a fitted effect of over 45% in size
In short: as §3

HEK293 = test: Cytotoxic Profiling of Annotated Libraries Using Quantitative High-Throughput Screening (AID 1296008); conditions: Five cell lines viability, CellTiter-Glo ATP luminescence, 48-72 h; max response: stronger effect = lower value; further: potency means the concentration at half of the fitted maximal effect; nearly all actives have a fitted effect of over 60% in size
In short: as §5

[18] = qHTS of pediatric cancer cell lines to identify multiple opportunities for drug repurposing: Primary screen for BT-12 cells (AID 1347101); further: potency means the concentration at half of the fitted maximal effect; nearly all actives have a fitted effect of over 25% in size
In short: as §2

With `NC1(c2ccc(-c3nc4ccn5c(=O)[nH]nc5c4cc3-c3ccccc3)cc2)CCC1` the Potency [1] was inconclusive: 18.7 µM [activator, partial curve], the Potency [2] was inconclusive: 0.0264 µM [cytotoxic, full curve, poor fit] and the Potency [3] was inconclusive: 16.6 µM [cytotoxic, partial curve, poor fit]. The IC50 (viability decrease) [4] was inconclusive: 6.62 µM [cytotoxic, partial curve, poor fit], the Potency [5] was inconclusive: 14.8 µM [inhibitor, partial curve] and the Potency [6] was inconclusive: 5.26 µM [cytotoxic, partial curve] and active: 16.8 µM. For the same molecule, the Potency [7] was active: 18.7 µM and inconclusive: 9.44 µM [cytotoxic, partial curve, poor fit], the Potency [8] was active: 11.8 µM and inconclusive: 8.41 µM [cytotoxic, partial curve] and the Potency [9] was active: 1.48 µM. For the same molecule, the Potency [10] was inconclusive: 37.2 µM [rising, partial curve, poor fit], the Potency [11] was active: 3.72 µM and the Potency [12] was inconclusive: 0.332 µM [cytotoxic, partial curve, poor fit]. The Potency [13] was active: 2.64 µM and the Potency (CRL-7250) was inconclusive: 26.6 µM [inhibitor, single point] and inconclusive: 10.3 µM [inhibitor, partial curve].
With `O=C(C=Cc1cccc(S(=O)(=O)Nc2ccccc2)c1)NO` the Potency [1] was active: 0.935 µM, the Potency [2] was inconclusive: 4.69 µM [rising, full curve, poor fit] and the Potency [14] was inconclusive: 20.9 µM [cytotoxic, partial curve]. For the same molecule, the Potency [15] was inconclusive: 3.72 µM [cytotoxic, full curve], the Potency [5] was active: 10.8 µM and the Potency [6] was active: 1.91 µM. The Potency [7] was inconclusive: 9.59 µM [cytotoxic, full curve], the Potency [8] was active: 6.79 µM and the Potency [9] was active: 1.71 µM. For the same molecule, the Potency [10] was active: 0.54 µM, the Potency [13] was active: 0.855 µM and the Potency (CRL-7250) was active: 21.5 µM.
In the case of `C[C@@]12O[C@@H](C[C@]1(O)CO)n1c3ccccc3c3c4c(c5c6ccccc6n2c5c31)CNC4=O`, the Potency [1] is reported as inconclusive: 0.105 µM [activator, full curve], the Potency [16] is reported as inconclusive: 1.18 µM [activator, full curve] and the Potency [2] is reported as active: 23.5 µM. The Potency [14] was active: 23.5 µM, the IC50 (viability decrease) [4] was active: 1.66 µM and the Potency [5] was active: 2.35 µM and active: 1.46 µM. For the same molecule, the Potency [6] was active: 3.32 µM, the Potency [9] was inconclusive: 0.0418 µM [cytotoxic, full curve, poor fit] and the Potency [10] was inconclusive: 37.2 µM [rising, partial curve, poor fit]. For the same molecule, the Potency [13] was inconclusive: 0.105 µM [cytotoxic, full curve, poor fit].
In the case of `COc1ccc(C2=N[C@H](c3ccc(Cl)cc3)[C@H](c3ccc(Cl)cc3)N2C(=O)N2CCNC(=O)C2)c(OC(C)C)c1`, the Potency [1] is reported as inconclusive: 3.72 µM [activator, full curve], the Potency [16] is reported as inconclusive: 33.2 µM [activator, single point] and the Potency [2] is reported as inconclusive: 33.2 µM [cytotoxic, partial curve, poor fit]. The Potency [14] was “inactive”, the IC50 (viability decrease) [4] was active: 18.7 µM and the Potency [5] was inconclusive: 33.2 µM [inhibitor, single point]. The Potency [7] was inconclusive: 13.2 µM [cytotoxic, partial curve], the Potency [9] was inconclusive: 0.0012 µM [rising, full curve, poor fit] and the Potency [17] was inconclusive: 13.2 µM [cytotoxic, partial curve, poor fit]. For the same molecule, the Potency [10] was inconclusive: 33.2 µM [rising, partial curve, poor fit], the Potency [11] was active: 8.33 µM and the Potency [13] was active: 0.059 µM. For the same molecule, the Potency (HEK293) was active: 11.8 µM.
In the case of `CC(NCc1ccc2c(c1)nc(NC(=O)c1ccc(-c3cn[nH]c3)s1)n2CC(C)(C)O)C(C)(C)C` (configuration not stated), the Potency [1] is reported as inconclusive: 0.059 µM [activator, full curve, poor fit], the Potency [2] is reported as inconclusive: 0.187 µM [cytotoxic, full curve] and the IC50 (viability decrease) [4] is reported as inconclusive: 0.0833 µM [cytotoxic, full curve]. The Potency [15] was active: 0.264 µM, the Potency [18] was active: 0.968 µM and the Potency [6] was active: 1.66 µM. For the same molecule, the Potency [7] was active: 14.8 µM, the Potency [9] was active: 0.0469 µM and the Potency [17] was active: 0.235 µM. For the same molecule, the Potency [10] was inconclusive: 33.2 µM [rising, partial curve, poor fit], the Potency [12] was active: 0.469 µM and the Potency [13] was active: 0.105 µM. The Potency (HEK293) was active: 0.132 µM.
In the case of `O=C1NC2CCCCN2C12CCN(CCCN1c3ccccc3CCc3ccc(Cl)cc31)CC2` (configuration not stated), the Potency [5] is reported as active: 16.4 µM, the Potency [6] is reported as inconclusive: 29.9 µM [cytotoxic, single point] and the Potency [8] is reported as inconclusive: 16.8 µM [cytotoxic, single point]. For the same molecule, the Potency (CRL-7250) was inconclusive: 33.5 µM [inhibitor, single point] and the Potency (HEK293) was inconclusive: 29.1 µM [inhibitor, single point].

Source: PubChem BioAssay (NCATS)
